This is an account of results in article PMC12624060, “Structures of human organellar SPFH protein complexes” (Nature Communications, 2025).

Sequences of proteins named here, by UniProt entry; tags and fusion partners are left off. Residues count along the entry.
UniProt O94905: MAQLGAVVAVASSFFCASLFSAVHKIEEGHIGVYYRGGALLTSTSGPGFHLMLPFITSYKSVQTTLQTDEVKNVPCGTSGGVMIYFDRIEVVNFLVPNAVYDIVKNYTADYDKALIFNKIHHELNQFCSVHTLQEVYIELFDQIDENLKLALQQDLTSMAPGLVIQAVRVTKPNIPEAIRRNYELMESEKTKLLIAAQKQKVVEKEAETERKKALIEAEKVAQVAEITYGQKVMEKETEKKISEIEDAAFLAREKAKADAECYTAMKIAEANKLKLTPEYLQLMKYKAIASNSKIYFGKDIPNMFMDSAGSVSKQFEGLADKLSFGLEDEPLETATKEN
UniProt Q9UQ90, residues 106-795: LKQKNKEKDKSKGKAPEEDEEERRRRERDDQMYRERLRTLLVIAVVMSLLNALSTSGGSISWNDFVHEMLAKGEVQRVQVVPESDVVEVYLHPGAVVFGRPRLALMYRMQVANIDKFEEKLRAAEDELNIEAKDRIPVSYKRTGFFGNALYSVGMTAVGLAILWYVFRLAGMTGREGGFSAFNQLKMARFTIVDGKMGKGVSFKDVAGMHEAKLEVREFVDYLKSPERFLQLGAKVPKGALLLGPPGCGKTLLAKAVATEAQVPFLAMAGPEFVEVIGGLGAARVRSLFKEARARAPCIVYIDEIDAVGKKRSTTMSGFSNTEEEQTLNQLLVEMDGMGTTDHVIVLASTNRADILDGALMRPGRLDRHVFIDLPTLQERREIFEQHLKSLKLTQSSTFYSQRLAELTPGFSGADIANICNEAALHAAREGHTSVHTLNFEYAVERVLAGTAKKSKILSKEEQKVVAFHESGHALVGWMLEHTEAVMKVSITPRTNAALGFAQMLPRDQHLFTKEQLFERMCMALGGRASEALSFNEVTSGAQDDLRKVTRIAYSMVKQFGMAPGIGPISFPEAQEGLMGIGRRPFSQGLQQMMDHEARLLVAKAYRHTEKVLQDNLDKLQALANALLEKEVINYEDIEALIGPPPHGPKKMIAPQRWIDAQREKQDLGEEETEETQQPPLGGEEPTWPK

Results are given in words; binding and its absence hold for the method and conditions named. For part of these data: In cells and extracts the contact can be indirect. Some entries that bind do so weakly or less than the wild type. For part of these data: Where a sequence is shown, tags or fusion partners need not be part of it.

The target in assay [1] is Erlin2 (endogenous) (human (endogenous in HEK293T or Flp-In 293 T-REx)) (UniProt O94905). Briefly: native gel or EMSA; BN-PAGE (3-12% Bis-Tris) of 1% DDM lysates of wildtype, Erlin1 KO and Erlin2 KO cells, immunoblot of the endogenous proteins.
Assay [2] deals with T1, N-terminally Strep-tagged PHB1 (stable Expi293F line) (human) (UniProt P35232).
T1 sequence: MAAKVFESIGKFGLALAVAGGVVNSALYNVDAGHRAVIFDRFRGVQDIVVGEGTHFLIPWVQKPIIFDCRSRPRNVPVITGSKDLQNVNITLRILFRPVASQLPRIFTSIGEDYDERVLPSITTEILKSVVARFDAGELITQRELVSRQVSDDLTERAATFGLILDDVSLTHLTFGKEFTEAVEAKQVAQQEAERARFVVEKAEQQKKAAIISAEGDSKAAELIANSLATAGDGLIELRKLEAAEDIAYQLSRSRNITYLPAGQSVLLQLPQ
The experiment in a line: pull-down; StrepTactin purification of Strep-PHB1 (with PHB2) from DDM/CHS-solubilised Expi293F membranes, immunoblot of the eluate. In general terms: Immunoblotting shows a protein as a band on a membrane.

The target of assay [3] is Erlin1 (endogenous) (human (endogenous in HEK293T or Flp-In 293 T-REx)) (UniProt O75477). The experiment in a line: native gel or EMSA; BN-PAGE (3-12% Bis-Tris) of 1% DDM lysates of wildtype, Erlin1 KO and Erlin2 KO cells, immunoblot of the endogenous proteins.

Consider “Erlin2 (endogenous) (from UniProt O94905 1-339)”, for which the binding entry in assay [1] is on record as “binds”.

Consider “SPG7 (from UniProt Q9UQ90 106-795) (enzyme)”, for which the binding result in assay [2] was “binds weakly”.

B1: Erlin1 (endogenous) (protein, UniProt O75477 1-348)
chain: MNMTQARVLVAAVVGLVAVLLYASIHKIEEGHLAVYYRGGALLTSPSGPGYHIMLPFITTFRSVQTTLQTDEVKNVPCGTSGGVMIYIDRIEVVNMLAPYAVFDIVRNYTADYDKTLIFNKIHHELNQFCSAHTLQEVYIELFDQIDENLKQALQKDLNLMAPGLTIQAVRVTKPKIPEAIRRNFELMEAEKTKLLIAAQKQKVVEKEAETERKKAVIEAEKIAQVAKIRFQQKVMEKETEKRISEIEDAAFLAREKAKADAEYYAAHKYATSNKHKLTPEYLELKKYQAIASNSKIYFGSNIPNMFVDSSCALKYSDIRTGRESSLPSKEALEPSGENVIQNKESTG
For the molecule B1, the binding result in assay [3] was “binds”.
